Test results published in patent publication US20120088663A1, “Triazole Compounds Carrying a Sulfur Substituent” (BASF SE, priority 2009, published 2012).
Some of these results come from one statement about several compounds together.

What was measured:
Assay type in all cases: in vivo
Septoria tritici = test: Preventative control of leaf blotch on wheat (green house test); conditions: 300 ppm spray, wheat seedlings, assessed after 4 weeks, untreated plants 90% infected
Puccinia recondita = test: Preventative control of brown rust on wheat (green house test); conditions: 300 ppm spray, wheat seedlings, assessed after 6 days in greenhouse, untreated plants 90% infected
Phakopsora pachyrhizi = test: Curative control of soy bean rust on soy beans (green house test); conditions: 300 ppm spray, soy bean seedlings, assessed 14 days after treatment, untreated plants 60% infected

Row | SMILES | infection (fungal attack on the leaves, % diseased leaf area) (Septoria tritici) | infection (fungal attack on the leaves, % diseased leaf area) (Puccinia recondita) | infection (fungal attack on the leaves, % diseased leaf area) (Phakopsora pachyrhizi)
1 | CCCC1COC(Cn2ncnc2S)(c2ccc(Oc3ccc(Cl)cc3)cc2Cl)O1 (stereo not shown) [Example 65, 2-{2-[2-Chloro-4-(4-chloro-phenoxy)-phenyl]-4-propyl-[1,3]dioxolan-2-yl-methyl}-2H-[1,2,4]triazole-3-thiol] | at most 15% | at most 15% | at most 15%
2 | COCC1COC(Cn2ncnc2S)(c2ccc(Oc3ccc(Cl)cc3)cc2Cl)O1 (stereo not shown) [Example 66, 2-{2-[2-Chloro-4-(4-chloro-phenoxy)-phenyl]-4-methoxymethyl-[1,3]dioxolan-2-ylmethyl}-2H-[1,2,4]triazole-3-thiol] | – | at most 15% | at most 15%
3 | CC1COC(Cn2cncn2)(c2ccc(Oc3ccc(Cl)cc3)cc2C(F)(F)F)O1 (stereo not shown) [Example 42, 1-{2-[4-(4-Chloro-phenoxy)-2-trifluoromethyl-phenyl]-4-methyl-[1,3]dioxolan-2-ylmethyl}-1H-[1,2,4]triazole] | – | at most 15% | at most 15%
